Laboratory results as given in publication PMC11249646, “Small-Molecule Disruptors of the Interaction between Calcium- and Integrin-Binding Protein 1 and Integrin αIIbβ3 as Novel Antiplatelet Agents” (ACS Pharmacology & Translational Science, 2024).
Where two headings read alike, the source gives them in different places.

Target: T1, CIB1 and αIIb interaction (CIB1-GST : F-αIIb peptide) (Homo sapiens, UniProt Q99828)
T1 construct: made in house; host or cells: BL-21 plus RIL cells (E. coli)
T1 sequence (Q99828 1-191): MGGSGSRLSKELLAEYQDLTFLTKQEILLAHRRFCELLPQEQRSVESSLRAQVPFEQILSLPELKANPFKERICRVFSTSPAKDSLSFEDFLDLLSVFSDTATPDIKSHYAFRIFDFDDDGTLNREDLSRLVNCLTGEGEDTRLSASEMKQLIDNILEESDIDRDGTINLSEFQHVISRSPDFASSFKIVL
Assay: FP assay, 1536-well qHTS format (primary and confirmatory screen)
Format: binding
Conditions: for Curve Class: negative sign = inhibitory curve

[1] = qHTS primary screen of LOPAC/NPACT libraries, negative = inhibition
[2] = qHTS primary screen of LOPAC/NPACT libraries
[3] = qHTS primary screen of LOPAC/NPACT libraries, read-out: IC50

| SMILES | Efficacy (%) | IC50 (IC50 [μM]) | Efficacy (%) [1] | Curve Class [2] | IC50 [3] |
| --- | --- | --- | --- | --- | --- |
| CC/C(=C(\c1ccccc1)c1ccc(OCCN(C)C)cc1)c1ccccc1.O=C(O)CC(O)(CC(=O)O)C(=O)O [NCGC00024928-12] | -59% |  |  |  |  |
| O=C1NC(=O)C(c2ccccc2[N+](=O)[O-])=C1Nc1ccc(O)c(Cl)c1 [NCGC00261166-01] |  | 28.2 µM |  |  |  |
| Cl.Cl.OCCN1CCN(CCCN2c3ccccc3Sc3ccc(C(F)(F)F)cc32)CC1 [NCGC00261240-01] |  |  | -39% | -2.4 | 50.1 µM |
| CN1CCN(CCCN2c3ccccc3Sc3ccc(Cl)cc32)CC1.O=C(O)/C=C\C(=O)O.O=C(O)/C=C\C(=O)O [NCGC00261719-01] |  |  | -28% | -2.4 | 70.8 µM |
